Data on 12 molecules can be found in article PMC7293730.

By UniProt entry, the sequences of proteins in these tests, tags left out.
UniProt P04792: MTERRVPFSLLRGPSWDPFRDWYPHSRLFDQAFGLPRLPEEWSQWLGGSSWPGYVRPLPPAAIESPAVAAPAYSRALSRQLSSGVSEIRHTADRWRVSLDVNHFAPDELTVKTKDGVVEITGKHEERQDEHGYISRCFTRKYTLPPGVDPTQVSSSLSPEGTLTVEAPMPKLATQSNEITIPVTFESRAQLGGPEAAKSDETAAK
UniProt P27816: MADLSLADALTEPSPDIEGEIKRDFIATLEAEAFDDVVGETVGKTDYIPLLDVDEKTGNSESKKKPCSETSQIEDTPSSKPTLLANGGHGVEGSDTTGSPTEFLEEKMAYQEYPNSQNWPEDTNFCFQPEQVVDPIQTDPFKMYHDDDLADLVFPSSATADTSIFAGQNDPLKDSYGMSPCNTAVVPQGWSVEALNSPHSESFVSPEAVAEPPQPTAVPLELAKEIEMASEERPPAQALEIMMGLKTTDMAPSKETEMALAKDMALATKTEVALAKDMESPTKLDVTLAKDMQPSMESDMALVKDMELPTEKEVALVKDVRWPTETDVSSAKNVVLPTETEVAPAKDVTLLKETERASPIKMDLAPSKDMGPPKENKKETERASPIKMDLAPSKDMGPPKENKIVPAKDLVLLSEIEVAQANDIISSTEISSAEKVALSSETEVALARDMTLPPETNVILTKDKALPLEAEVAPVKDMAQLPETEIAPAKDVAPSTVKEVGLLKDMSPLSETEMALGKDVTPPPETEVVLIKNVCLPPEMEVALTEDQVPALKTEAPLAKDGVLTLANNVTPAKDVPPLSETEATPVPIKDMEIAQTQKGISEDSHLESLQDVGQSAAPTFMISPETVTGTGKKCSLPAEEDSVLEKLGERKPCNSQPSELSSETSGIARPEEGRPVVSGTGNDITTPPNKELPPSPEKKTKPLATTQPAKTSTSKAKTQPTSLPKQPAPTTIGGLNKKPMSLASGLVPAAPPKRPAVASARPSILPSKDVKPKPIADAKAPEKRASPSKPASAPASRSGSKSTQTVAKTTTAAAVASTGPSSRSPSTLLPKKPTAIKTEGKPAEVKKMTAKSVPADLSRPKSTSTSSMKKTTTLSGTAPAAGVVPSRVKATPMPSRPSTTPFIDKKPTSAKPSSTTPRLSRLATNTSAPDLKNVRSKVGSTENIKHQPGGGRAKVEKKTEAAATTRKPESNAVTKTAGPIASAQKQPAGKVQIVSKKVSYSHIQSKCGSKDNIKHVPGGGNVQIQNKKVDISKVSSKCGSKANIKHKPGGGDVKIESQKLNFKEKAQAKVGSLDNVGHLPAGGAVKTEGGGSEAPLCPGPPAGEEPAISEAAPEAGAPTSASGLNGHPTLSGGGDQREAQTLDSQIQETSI
UniProt P04264: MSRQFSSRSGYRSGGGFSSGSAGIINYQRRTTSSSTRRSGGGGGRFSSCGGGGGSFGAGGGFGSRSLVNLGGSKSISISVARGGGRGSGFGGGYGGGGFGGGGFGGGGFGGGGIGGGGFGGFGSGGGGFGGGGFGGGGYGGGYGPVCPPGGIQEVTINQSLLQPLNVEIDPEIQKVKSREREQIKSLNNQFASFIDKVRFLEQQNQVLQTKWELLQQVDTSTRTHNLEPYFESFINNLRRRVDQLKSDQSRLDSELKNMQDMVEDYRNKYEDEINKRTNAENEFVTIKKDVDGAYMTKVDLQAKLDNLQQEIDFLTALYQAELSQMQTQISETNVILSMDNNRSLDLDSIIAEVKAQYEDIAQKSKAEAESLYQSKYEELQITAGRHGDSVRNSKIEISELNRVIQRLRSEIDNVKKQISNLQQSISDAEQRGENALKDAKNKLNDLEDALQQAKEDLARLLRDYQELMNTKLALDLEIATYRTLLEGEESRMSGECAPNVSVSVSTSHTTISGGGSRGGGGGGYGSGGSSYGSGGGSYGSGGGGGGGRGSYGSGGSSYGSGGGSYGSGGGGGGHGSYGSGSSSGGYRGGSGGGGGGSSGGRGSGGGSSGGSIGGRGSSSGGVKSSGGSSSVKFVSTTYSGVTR
UniProt P35637: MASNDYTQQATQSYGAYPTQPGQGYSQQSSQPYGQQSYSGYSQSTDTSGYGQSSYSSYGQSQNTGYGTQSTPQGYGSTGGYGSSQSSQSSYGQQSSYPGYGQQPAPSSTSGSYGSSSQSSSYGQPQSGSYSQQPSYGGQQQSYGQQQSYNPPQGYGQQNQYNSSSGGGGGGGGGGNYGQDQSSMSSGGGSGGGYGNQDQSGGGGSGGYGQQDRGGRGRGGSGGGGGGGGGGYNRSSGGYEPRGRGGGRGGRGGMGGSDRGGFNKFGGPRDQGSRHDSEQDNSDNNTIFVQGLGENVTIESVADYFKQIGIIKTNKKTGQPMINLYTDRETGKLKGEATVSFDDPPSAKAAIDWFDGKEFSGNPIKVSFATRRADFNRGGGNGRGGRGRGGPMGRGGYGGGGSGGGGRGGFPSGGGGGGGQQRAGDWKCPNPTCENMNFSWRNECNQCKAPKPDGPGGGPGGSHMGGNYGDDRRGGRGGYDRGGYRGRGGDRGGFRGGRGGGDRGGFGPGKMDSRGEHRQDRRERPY
UniProt Q7Z5L9: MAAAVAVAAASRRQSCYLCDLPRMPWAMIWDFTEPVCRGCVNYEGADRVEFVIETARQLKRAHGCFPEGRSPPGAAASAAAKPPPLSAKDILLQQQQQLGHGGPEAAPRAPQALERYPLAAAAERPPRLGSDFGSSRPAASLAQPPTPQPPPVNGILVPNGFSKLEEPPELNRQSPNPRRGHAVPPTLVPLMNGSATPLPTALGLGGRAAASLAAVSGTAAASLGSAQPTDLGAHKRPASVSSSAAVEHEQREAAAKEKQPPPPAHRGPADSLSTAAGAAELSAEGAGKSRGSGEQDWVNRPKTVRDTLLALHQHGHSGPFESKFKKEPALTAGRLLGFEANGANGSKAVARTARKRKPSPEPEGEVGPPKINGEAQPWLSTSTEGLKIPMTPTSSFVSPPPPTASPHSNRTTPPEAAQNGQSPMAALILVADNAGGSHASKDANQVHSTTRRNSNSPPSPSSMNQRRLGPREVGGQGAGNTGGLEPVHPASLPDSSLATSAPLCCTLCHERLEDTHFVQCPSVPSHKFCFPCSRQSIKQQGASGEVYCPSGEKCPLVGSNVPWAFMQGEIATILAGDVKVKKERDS
UniProt P68104: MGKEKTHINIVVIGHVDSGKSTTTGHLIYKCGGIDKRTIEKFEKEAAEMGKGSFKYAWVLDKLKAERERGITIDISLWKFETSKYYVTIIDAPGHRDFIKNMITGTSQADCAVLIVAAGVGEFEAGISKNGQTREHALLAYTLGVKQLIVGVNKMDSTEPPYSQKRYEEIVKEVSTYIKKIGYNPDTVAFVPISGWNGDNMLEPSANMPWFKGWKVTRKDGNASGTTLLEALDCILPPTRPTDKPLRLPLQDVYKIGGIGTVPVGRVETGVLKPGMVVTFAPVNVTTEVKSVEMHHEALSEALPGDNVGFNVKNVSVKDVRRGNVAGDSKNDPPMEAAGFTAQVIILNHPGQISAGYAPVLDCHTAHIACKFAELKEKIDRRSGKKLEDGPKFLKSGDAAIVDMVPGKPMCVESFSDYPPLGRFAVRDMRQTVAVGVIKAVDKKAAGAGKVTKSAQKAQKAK

The target in this assay is T1, Helicobacter pylori adhesin HpaA (neuraminyllactose-binding hemagglutinin), recombinant, 6x His tagged (Helicobacter pylori (strain ATCC 26695)) (UniProt P55969).
T1 sequence: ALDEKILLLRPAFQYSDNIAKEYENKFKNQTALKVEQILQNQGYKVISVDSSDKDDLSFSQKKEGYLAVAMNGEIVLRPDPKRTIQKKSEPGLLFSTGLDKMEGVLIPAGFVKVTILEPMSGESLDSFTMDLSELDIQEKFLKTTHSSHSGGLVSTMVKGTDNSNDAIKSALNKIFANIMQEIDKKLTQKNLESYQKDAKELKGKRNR
As to the kind of experiment: affinity purification with mass spectrometry; only the target purified.

Results are given in words; binding and its absence hold for the method and conditions named. Binding seen in cells or lysates may run through a third protein. A yes stands for co-enrichment or nearness to the bait. Other partners may have been found. Tags and fused reporters may be left off the sequences shown.

Take “Heat shock protein beta-1 (from UniProt P04792 1-205)”: the binding entry is listed as “binds”.
Then “Microtubule-associated protein 4 (from UniProt P27816 1-1152)”, with “binds”; and “Keratin, type II cytoskeletal 1 (from UniProt P04264 1-644)”, with “binds”; and “RNA-binding protein FUS (from UniProt P35637 1-526)”, with “binds”.
With “Interferon regulatory factor 2-binding protein 2 (from UniProt Q7Z5L9 1-587)”, the binding result is given as “binds”.
Then “Elongation factor 1-alpha 1 (from UniProt P68104 1-462)”, with “binds”.

B1: SNW domain-containing protein 1 (protein, UniProt Q13573 1-536)
chain: MALTSFLPAPTQLSQDQLEAEEKARSQRSRQTSLVSSRREPPPYGYRKGWIPRLLEDFGDGGAFPEIHVAQYPLDMGRKKKMSNALAIQVDSEGKIKYDAIARQGQSKDKVIYSKYTDLVPKEVMNADDPDLQRPDEEAIKEITEKTRVALEKSVSQKVAAAMPVRAADKLAPAQYIRYTPSQQGVAFNSGAKQRVIRMVEMQKDPMEPPRFKINKKIPRGPPSPPAPVMHSPSRKMTVKEQQEWKIPPCISNWKNAKGYTIPLDKRLAADGRGLQTVHINENFAKLAEALYIADRKAREAVEMRAQVERKMAQKEKEKHEEKLREMAQKARERRAGIKTHVEKEDGEARERDEIRHDRRKERQHDRNLSRAAPDKRSKLQRNENRDISEVIALGVPNPRTSNEVQYDQRLFNQSKGMDSGFAGGEDEIYNVYDQAWRGGKDMAQSIYRPSKNLDKDMYGDDLEARIKTNRFVPDKEFSGSDRRQRGREGPVQFEEDPFGLDKFLEEAKQHGGSKRPSDSSRPKEHEHEGKKRRKE
As for B1, the binding result is listed as “binds”.

B2: Transketolase (protein, UniProt P29401 1-623)
chain: MESYHKPDQQKLQALKDTANRLRISSIQATTAAGSGHPTSCCSAAEIMAVLFFHTMRYKSQDPRNPHNDRFVLSKGHAAPILYAVWAEAGFLAEAELLNLRKISSDLDGHPVPKQAFTDVATGSLGQGLGAACGMAYTGKYFDKASYRVYCLLGDGELSEGSVWEAMAFASIYKLDNLVAILDINRLGQSDPAPLQHQMDIYQKRCEAFGWHAIIVDGHSVEELCKAFGQAKHQPTAIIAKTFKGRGITGVEDKESWHGKPLPKNMAEQIIQEIYSQIQSKKKILATPPQEDAPSVDIANIRMPSLPSYKVGDKIATRKAYGQALAKLGHASDRIIALDGDTKNSTFSEIFKKEHPDRFIECYIAEQNMVSIAVGCATRNRTVPFCSTFAAFFTRAFDQIRMAAISESNINLCGSHCGVSIGEDGPSQMALEDLAMFRSVPTSTVFYPSDGVATEKAVELAANTKGICFIRTSRPENAIIYNNNEDFQVGQAKVVLKSKDDQVTVIGAGVTLHEALAAAELLKKEKINIRVLDPFTIKPLDRKLILDSARATKGRILTVEDHYYEGGIGEAVSSAVVGEPGITVTHLAVNRVPRSGKPAELLKMFGIDRDAIAQAVRGLITKA
For B2, the binding result is “binds”.

B3: Peroxiredoxin-1 (protein, UniProt Q06830 1-199)
chain: MSSGNAKIGHPAPNFKATAVMPDGQFKDISLSDYKGKYVVFFFYPLDFTFVCPTEIIAFSDRAEEFKKLNCQVIGASVDSHFCHLAWVNTPKKQGGLGPMNIPLVSDPKRTIAQDYGVLKADEGISFRGLFIIDDKGILRQITVNDLPVGRSVDETLRLVQAFQFTDKHGEVCPAGWKPGSDTIKPDVQKSKEYFSKQK
On to B3, for which the binding entry is recorded as “binds”.

B4: Splicing factor 1 (protein, UniProt Q15637 1-639)
chain: MATGANATPLDFPSKKRKRSRWNQDTMEQKTVIPGMPTVIPPGLTREQERAYIVQLQIEDLTRKLRTGDLGIPPNPEDRSPSPEPIYNSEGKRLNTREFRTRKKLEEERHNLITEMVALNPDFKPPADYKPPATRVSDKVMIPQDEYPEINFVGLLIGPRGNTLKNIEKECNAKIMIRGKGSVKEGKVGRKDGQMLPGEDEPLHALVTANTMENVKKAVEQIRNILKQGIETPEDQNDLRKMQLRELARLNGTLREDDNRILRPWQSSETRSITNTTVCTKCGGAGHIASDCKFQRPGDPQSAQDKARMDKEYLSLMAELGEAPVPASVGSTSGPATTPLASAPRPAAPANNPPPPSLMSTTQSRPPWMNSGPSESRPYHGMHGGGPGGPGGGPHSFPHPLPSLTGGHGGHPMQHNPNGPPPPWMQPPPPPMNQGPHPPGHHGPPPMDQYLGSTPVGSGVYRLHQGKGMMPPPPMGMMPPPPPPPSGQPPPPPSGPLPPWQQQQQQPPPPPPPSSSMASSTPLPWQQNTTTTTTSAGTGSIPPWQQQQAAAAASPGAPQMQGNPTMVPLPPGVQPPLPPGAPPPPPPPPPGSAGMMYAPPPPPPPPMDPSNFVTMMGMGVAGMPPFGMPPAPPPPPPQN
Consider B4, for which the binding result is listed as “binds”.

B5: UPF0568 protein C14orf166 (protein, UniProt Q9Y224 1-244)
chain: MFRRKLTALDYHNPAGFNCKDETEFRNFIVWLEDQKIRHYKIEDRGNLRNIHSSDWPKFFEKYLRDVNCPFKIQDRQEAIDWLLGLAVRLEYGDNAEKYKDLVPDNSKTADNATKNAEPLINLDVNNPDFKAGVMALANLLQIQRHDDYLVMLKAIRILVQERLTQDAVAKANQTKEGLPVALDKHILGFDTGDAVLNEAAQILRLLHIEELRELQTKINEAIVAVQAIIADPKTDHRLGKVGR
Take B5: the binding entry is listed as “binds”.

B6: Protein S100-A11 (protein, UniProt P31949 1-105)
chain: MAKISSPTETERCIESLIAVFQKYAGKDGYNYTLSKTEFLSFMNTELAAFTKNQKDPGVLDRMMKKLDTNSDGQLDFSEFLNLIGGLAMACHDSFLKAVPSQKRT
Turning to B6, the binding entry is reported as “binds”.
